# For at least one compound, name, drawing or mass did not settle the structure.
# Assay: size of spray dried nanoparticles by scanning electron microscopy (SEM)
# Assay type: physicochemical
# Conditions: dissolved in ethanol, spray dried with microfluidic nebulator, flow-focusing nebulization unit, four air inlets, 2.8 bar, 1 ml/h, collected 10 cm from outlet
structure (smiles),measurement,value
CC(C)OC(=O)C(C)(C)Oc1ccc(C(=O)c2ccc(Cl)cc2)cc1 [fenofibrate],average nanoparticle diameters,25+/−5 nm

# — patent US20140284001A1, “SYSTEMS AND METHODS FOR SPRAY DRYING IN MICROFLUIDIC AND OTHER SYSTEMS” (President and Fellows Of Harvard College, priority 2012, published 2014)
